Results as given in article PMC4731418.
Results are given in words; binding and its absence hold for the method and conditions named. In cells and extracts the contact can be indirect. A result given as binding can be weak or reduced; the word gives no strength.

Protein sequences, listed by entry. Tags and fused reporters are not part of them. Lines headed by an entry give the natural chain unless they say otherwise; changes in a name come on top.
UniProt P42859: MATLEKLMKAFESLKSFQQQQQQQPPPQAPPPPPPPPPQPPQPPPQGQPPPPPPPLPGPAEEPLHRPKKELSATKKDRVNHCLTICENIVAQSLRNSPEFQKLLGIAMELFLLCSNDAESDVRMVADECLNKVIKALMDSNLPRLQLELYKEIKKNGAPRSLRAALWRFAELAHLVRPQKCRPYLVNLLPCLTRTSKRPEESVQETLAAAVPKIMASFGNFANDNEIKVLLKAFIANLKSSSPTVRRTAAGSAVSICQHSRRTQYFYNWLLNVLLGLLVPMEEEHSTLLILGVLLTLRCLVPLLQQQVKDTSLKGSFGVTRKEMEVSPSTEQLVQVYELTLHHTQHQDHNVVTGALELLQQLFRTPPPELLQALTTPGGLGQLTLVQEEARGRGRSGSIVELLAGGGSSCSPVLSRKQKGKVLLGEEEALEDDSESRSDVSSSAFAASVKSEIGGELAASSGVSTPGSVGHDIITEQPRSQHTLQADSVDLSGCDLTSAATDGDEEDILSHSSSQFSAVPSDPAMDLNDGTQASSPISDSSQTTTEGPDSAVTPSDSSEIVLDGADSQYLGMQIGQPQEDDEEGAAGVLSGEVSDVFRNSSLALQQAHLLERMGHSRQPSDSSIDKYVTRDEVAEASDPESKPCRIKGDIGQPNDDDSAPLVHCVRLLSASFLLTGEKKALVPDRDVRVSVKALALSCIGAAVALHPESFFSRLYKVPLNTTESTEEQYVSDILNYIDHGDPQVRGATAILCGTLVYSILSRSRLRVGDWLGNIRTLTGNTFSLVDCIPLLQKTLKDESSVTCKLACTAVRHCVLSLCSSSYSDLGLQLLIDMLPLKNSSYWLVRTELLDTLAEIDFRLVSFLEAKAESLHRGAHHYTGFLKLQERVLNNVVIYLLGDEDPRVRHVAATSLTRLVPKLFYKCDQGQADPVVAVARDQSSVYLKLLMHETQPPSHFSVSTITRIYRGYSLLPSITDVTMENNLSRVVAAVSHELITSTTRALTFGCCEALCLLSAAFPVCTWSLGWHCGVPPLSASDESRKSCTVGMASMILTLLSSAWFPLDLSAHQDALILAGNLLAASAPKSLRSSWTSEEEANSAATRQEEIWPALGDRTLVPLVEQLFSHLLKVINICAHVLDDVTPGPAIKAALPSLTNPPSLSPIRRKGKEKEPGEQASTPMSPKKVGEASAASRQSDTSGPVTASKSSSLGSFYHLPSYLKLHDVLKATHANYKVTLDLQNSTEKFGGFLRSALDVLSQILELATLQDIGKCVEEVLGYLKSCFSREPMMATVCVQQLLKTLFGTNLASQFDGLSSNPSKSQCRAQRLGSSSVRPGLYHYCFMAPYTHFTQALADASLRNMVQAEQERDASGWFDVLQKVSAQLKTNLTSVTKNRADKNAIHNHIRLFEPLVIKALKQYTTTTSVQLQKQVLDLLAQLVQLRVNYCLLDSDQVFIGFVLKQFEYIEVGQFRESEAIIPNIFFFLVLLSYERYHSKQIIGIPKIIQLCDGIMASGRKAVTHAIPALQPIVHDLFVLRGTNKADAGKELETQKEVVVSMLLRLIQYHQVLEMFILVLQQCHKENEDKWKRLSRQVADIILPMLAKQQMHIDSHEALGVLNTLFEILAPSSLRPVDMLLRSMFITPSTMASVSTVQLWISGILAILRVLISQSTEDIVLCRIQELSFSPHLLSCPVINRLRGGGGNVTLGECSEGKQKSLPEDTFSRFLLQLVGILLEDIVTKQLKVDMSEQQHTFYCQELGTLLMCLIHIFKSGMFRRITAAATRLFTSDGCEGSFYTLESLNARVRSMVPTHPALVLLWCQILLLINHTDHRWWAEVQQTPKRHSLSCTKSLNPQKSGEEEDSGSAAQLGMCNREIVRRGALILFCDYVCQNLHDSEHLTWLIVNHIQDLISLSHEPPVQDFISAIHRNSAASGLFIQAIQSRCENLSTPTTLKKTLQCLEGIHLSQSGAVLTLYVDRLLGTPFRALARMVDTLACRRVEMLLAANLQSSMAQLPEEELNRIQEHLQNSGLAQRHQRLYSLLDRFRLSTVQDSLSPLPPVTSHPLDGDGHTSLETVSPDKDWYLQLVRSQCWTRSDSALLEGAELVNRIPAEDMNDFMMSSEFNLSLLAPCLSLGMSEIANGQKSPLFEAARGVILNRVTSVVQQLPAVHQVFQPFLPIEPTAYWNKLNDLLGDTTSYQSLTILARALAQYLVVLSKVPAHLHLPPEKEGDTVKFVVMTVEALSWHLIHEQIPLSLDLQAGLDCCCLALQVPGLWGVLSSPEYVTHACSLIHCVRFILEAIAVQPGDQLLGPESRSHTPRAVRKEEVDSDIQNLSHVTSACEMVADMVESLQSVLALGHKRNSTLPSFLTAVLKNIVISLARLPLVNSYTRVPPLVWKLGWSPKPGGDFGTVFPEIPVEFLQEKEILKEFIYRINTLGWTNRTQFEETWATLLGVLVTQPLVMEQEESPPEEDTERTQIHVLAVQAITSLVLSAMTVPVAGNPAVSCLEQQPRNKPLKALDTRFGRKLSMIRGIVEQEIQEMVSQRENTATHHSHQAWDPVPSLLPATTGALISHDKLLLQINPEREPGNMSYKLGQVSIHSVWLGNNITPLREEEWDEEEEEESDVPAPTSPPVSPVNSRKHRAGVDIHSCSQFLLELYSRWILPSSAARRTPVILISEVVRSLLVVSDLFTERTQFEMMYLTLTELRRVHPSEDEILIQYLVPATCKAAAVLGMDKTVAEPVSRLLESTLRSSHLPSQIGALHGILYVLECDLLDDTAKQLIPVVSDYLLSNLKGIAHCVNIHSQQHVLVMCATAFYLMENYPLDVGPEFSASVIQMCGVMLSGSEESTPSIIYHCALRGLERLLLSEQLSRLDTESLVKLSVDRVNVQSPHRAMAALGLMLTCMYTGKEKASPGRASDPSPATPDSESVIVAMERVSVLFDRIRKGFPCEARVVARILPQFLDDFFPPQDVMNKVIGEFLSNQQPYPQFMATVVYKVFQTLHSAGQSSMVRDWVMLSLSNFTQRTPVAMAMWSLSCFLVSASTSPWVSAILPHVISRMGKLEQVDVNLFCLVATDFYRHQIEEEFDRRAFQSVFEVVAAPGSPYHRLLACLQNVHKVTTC

Biological target: T1, SIRT1 (mouse (endogenous in mouse brain)) (UniProt Q923E4)
T1 sequence: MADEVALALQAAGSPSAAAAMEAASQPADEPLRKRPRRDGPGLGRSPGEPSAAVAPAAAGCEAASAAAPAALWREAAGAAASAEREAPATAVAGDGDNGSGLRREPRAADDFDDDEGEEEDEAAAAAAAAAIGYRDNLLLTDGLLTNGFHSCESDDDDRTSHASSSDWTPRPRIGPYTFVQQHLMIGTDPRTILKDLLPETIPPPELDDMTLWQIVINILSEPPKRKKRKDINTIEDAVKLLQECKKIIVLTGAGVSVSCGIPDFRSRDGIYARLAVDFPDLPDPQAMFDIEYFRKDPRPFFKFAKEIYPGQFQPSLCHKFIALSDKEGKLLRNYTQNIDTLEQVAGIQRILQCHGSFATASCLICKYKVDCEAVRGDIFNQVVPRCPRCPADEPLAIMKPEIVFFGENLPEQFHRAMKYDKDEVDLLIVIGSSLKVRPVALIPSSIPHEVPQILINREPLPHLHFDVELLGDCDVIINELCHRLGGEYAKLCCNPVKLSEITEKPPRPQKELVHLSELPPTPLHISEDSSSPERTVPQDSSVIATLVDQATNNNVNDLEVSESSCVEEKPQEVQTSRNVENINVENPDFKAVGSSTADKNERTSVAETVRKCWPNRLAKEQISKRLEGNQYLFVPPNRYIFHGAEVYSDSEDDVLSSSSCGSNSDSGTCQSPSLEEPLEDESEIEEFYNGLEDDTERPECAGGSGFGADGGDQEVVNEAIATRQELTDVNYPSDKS
Test: co-IP; SIRT1 immunoprecipitated (1 μg antibody, 4 h, 4°C, protein G Dynabeads) from half brain lysates of R6/2 (9 weeks), HdhQ150 homozygous (22 months) and WT littermate mice in NETN buffer (20 mM Tris-HCl pH 8, 100 mM NaCl, 1 mM EDTA, 0.5% NP-40); western blot for HTT

binding: binds
Substance: mutant HTT of HdhQ150 knock-in homozygous mice (from UniProt P42859)
